# Results published in the supplement of paper PMC12823440, “Inhibitors supercharge kinase turnover through native proteolytic circuits” (Nature, 2025).
# By UniProt entry, the sequences of proteins in these tests, tags left out.
# UniProt P50750, whole entry: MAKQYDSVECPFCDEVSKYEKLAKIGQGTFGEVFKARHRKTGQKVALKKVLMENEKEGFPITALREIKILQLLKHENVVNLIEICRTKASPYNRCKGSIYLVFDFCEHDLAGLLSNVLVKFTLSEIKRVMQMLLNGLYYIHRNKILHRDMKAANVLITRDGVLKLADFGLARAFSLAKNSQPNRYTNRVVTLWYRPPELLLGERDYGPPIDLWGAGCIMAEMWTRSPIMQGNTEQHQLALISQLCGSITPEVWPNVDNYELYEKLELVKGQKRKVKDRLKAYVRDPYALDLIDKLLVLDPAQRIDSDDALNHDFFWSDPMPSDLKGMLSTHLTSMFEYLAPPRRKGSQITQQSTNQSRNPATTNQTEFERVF
# Where a name gives a salt, the structure may show the parent alone. The list shows a part of the results. Hit calls seldom repeat between salt and free forms of one compound.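 Kinases, fused to nanoluciferase, were expressed in K562 cells; luminescence was measured every 4 h from 2 to 18 h as percent of control (DMSO = 100%, positive control = 0%). A time point is decreased if signal falls significantly (2 sigma). Hits were called by the authors by a rule that is not shown; the count of time points alone does not decide it.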
# Target: CDK9 (UniProt P50750)
# Test: number of time points (of 4; 2 h point missing) at which kinase-Nluc abundance scored as decreased, DMSO-normalised (count); higher = more persistent destabilization
# Details: K562; 2-18 h
row,SMILES,number of time points
1,O=c1c(O)c(-c2ccc(O)c(O)c2)oc2cc(O)cc(O)c12 [Quercetin (dihydrate)] (10 µM),0
2,Cc1c(C(=O)N2CCOc3ccc(-c4ccc(N)nc4)cc3C2)ccc(S(C)(=O)=O)c1F (10 µM),0
3,Cc1cc(CS(=O)(=O)c2ccccc2)cc(OCc2ccc(CN3CCC[C@@H]3CO)cc2)c1 [PF-543 (Citrate)] (10 µM),0
4,N#CC(=Cc1ccc(O)c(O)c1)C(=O)NCc1ccccc1 (mixture of isomers) (10 µM),0
5,COc1cc(C(=O)NC2CCN(C)CC2)c(F)cc1Nc1ncc2c(n1)N(C1CCCC1)CC(F)(F)C(=O)N2C [TAK-960 (dihydrochloride)] (2.5 µM),0
6,CCCCC[C@H](O)CC(=O)CCc1ccc(O)c(OC)c1 [[6]-Gingerol] (10 µM),0
7,COc1cc2ncnc(Nc3cccc(O)c3)c2cc1OC (10 µM),1
8,C[C@H](NC(=O)/C(C#N)=C/c1cccc(Br)n1)c1ccccc1 (2.5 µM),0
9,C[C@H](CN(C)C)Oc1nc(Nc2cc3cccc(Cl)c3cn2)cnc1C#N (10 µM),0
10,COc1cc2c(Nc3ccc(NC(=O)c4ccccc4)cc3)ncnc2cc1OCCCN1CCOCC1 (10 µM),0
11,Cc1ncc(-c2ccnc(Nc3ccc(S(C)(=O)=O)cc3)n2)n1C(C)C (2.5 µM),0
12,COc1cc2ncnc(Nc3cccc(Cl)c3F)c2cc1OC(=O)N1CCN(C)C[C@H]1C [Zorifertinib] (10 µM),0
13,CC(C)(C)c1cc(NC(=O)Nc2ccc(-c3cn4c(n3)sc3cc(OCCN5CCOCC5)ccc34)cc2)no1 [Quizartinib] (10 µM),0
14,CC(C)c1ccc2oc3nc(N)c(C(=O)O)cc3c(=O)c2c1 [Amlexanox] (10 µM),0
15,Cc1ccc(NC(=O)c2cccc(N(C)C)c2)cc1NC(=O)c1ccc(O)cc1 (10 µM),0
16,C=CC(=O)N1CC[C@H](n2nc(C#Cc3cc(OC)cc(OC)c3)c3c(N)ncnc32)C1 [Futibatinib] (10 µM),0
17,CNC(=O)c1cc(Oc2ccc(NC(=O)Nc3cc(C(C)(C)C)nn3-c3ccc4ncccc4c3)c(F)c2)ccn1 [Rebastinib] (2.5 µM),4
18,COc1nccc(-c2c(-c3ccc(F)cc3)ncn2C2CCC(O)CC2)n1 (centres undefined) (10 µM),0
19,O=c1c(-c2ccc(O)cc2)coc2cc(O)cc(O)c12 [Genistein] (10 µM),0
20,CC#CC(=O)N[C@H]1CCCN(c2c(F)cc(C(N)=O)c3[nH]c(C)c(C)c23)C1 [Branebrutinib] (10 µM),0

row,SMILES,number of time points
1,CCn1c(=O)c2cc(C(N)=O)c(N)nc2n(C2CC2)c1=O (10 µM),0
2,COc1cc(F)cc([C@@H](CO)NC(=O)[C@@H](C)N2Cc3ccc(-c4nc(NC5CCOCC5)ncc4Cl)cc3C2=O)c1 [ERK1/2 inhibitor 2] (10 µM),0
3,Cc1ccc2c(Nc3ccc(Cl)cc3)nccc2c1Nc1ncccc1-c1ncnc2nc[nH]c12 [Raf inhibitor 1] (2.5 µM),0
4,CCCCNc1ncc(-c2ccc(CN3CCOCC3)cn2)c(NC2CCC(O)CC2)n1 (centres undefined) (10 µM),0
5,CC(C)=CC/C=C(\C)[C@H]1CC[C@]2(C)[C@@H]1[C@H](O)C[C@@H]1[C@@]3(C)CC[C@H](O[C@@H]4O[C@H](CO)[C@@H](O)[C@H](O)[C@H]4O[C@@H]4O[C@H](CO)[C@@H](O)[C@H](O)[C@H]4O)C(C)(C)[C@@H]3CC[C@]12C [Ginsenoside Rg5] (10 µM),0
6,N#Cc1ccc2[nH]c(O)c(-c3ccc(CN4CCOCC4)cn3)c2c1 (10 µM),0
7,Oc1cc(O)cc(/C=C/c2ccc(O)c(O)c2)c1 [Piceatannol] (10 µM),0
8,CC(C)(C)S(=O)(=O)c1cc2c(Nc3ccc4scnc4c3)ncnc2cc1OCCO (2.5 µM),0
9,COc1c(Cl)cc2c([nH]c3cnccc32)c1NC(=O)c1cccnc1C (10 µM),0
10,CC(C)C(=O)Nc1ncc(-c2cc(C(F)F)nn2-c2c(Cl)cccc2Cl)s1 (10 µM),0
11,COc1cc2nc(C)nc(N[C@H](C)c3cc(N)cc(C(F)(F)F)c3)c2cc1O[C@H]1CCOC1 (10 µM),0
12,COc1cc(OC)c(F)c(COc2cnc(Nc3cnn(CCO)c3)nc2)c1F (2.5 µM),0
13,O=c1cc(N2CCOCC2)oc2c(-c3ccccc3)cccc12 (10 µM),0
14,O=C(NOC[C@H](O)CO)c1ccc(F)c(F)c1Nc1ccc(I)cc1F (2.5 µM),0
15,CC(C)(C)c1nc2c3cc[nH]c(=O)c3c3cc(F)ccc3c2[nH]1 [Pyridone 6] (10 µM),0
16,COCc1c(-c2ccc(NC(=O)Nc3cc(C(F)(F)F)ccc3F)c(F)c2)c2c(N)ncnn2c1CN1CCOCC1 (2.5 µM),3
17,COCCOc1cc2nccc(Nc3n[nH]c(C)c3C)c2cc1S(=O)(=O)C(C)(C)C [RIP2 kinase inhibitor 2] (2.5 µM),0
18,Cc1ccc(F)c(NC(=O)Nc2ccc(-c3cccc4[nH]nc(N)c34)cc2)c1 [Linifanib] (2.5 µM),0
19,Cn1nc(C(C)(C)C)cc1NC(=O)Nc1ccc(Oc2ccncc2)cc1 (10 µM),0

# 3 compounds from above, ordered by length of the SMILES, largest number first.
row,SMILES,number of time points
5,CC(C)=CC/C=C(\C)[C@H]1CC[C@]2(C)[C@@H]1[C@H](O)C[C@@H]1[C@@]3(C)CC[C@H](O[C@@H]4O[C@H](CO)[C@@H](O)[C@H](O)[C@H]4O[C@@H]4O[C@H](CO)[C@@H](O)[C@H](O)[C@H]4O)C(C)(C)[C@@H]3CC[C@]12C [Ginsenoside Rg5] (10 µM),0
5,COc1cc(C(=O)NC2CCN(C)CC2)c(F)cc1Nc1ncc2c(n1)N(C1CCCC1)CC(F)(F)C(=O)N2C [TAK-960 (dihydrochloride)] (2.5 µM),0
13,CC(C)(C)c1cc(NC(=O)Nc2ccc(-c3cn4c(n3)sc3cc(OCCN5CCOCC5)ccc34)cc2)no1 [Quizartinib] (10 µM),0
